Test results as given in patent publication US12496304B2, “Selective glucocorticoid receptor modifiers for treating impaired skin wound healing” (AKRIBES BIOMEDICAL GMBH, priority 2019, dated 2025).
For part of these data: For at least one compound, name, drawing or mass did not settle the structure. Some entries share one result that the patent states for a list of compounds.

What was measured:
glucocorticoid receptor = biological target: T1, glucocorticoid receptor (Homo sapiens, UniProt P04150); conditions: fibroblasts, indirect immunofluorescence (FIG. 14)
T1 sequence (P04150 1-777): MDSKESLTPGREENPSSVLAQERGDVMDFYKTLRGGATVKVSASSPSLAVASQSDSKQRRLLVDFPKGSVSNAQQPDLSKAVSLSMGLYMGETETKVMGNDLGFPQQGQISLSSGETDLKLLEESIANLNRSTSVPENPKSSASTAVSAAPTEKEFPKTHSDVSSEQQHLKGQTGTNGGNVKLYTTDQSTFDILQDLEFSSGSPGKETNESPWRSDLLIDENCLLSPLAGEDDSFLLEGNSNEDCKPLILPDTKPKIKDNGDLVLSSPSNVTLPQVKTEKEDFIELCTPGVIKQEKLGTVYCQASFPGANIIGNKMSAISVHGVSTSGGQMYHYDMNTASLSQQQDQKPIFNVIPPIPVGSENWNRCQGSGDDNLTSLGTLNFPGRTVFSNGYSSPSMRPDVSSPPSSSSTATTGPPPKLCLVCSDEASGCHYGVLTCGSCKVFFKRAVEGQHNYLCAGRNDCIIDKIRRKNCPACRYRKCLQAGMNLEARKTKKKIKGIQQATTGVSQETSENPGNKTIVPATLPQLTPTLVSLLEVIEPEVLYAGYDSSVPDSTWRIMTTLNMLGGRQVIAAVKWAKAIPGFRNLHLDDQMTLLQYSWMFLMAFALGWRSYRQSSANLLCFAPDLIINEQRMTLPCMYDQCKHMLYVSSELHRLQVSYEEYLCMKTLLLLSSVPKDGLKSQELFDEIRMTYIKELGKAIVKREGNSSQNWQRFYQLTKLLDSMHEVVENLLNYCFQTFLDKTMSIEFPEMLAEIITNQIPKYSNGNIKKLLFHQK

IL-8 [1] = experiment: Primary human monocyte cytokine secretion assay (spontaneous IL-8); format: cell-based; conditions: 16 hours (FIG. 16B)
Procedure: Primary human monocytes were prepared from peripheral blood mononuclear cells (PBMC). PBMC were isolated from buffy coats obtained from the Red Cross, Vienna, using LymphoPrep (Technoclone). 30 ml of buffy concentrate was diluted 1:2 with PBS, gently underlayered with 15 ml Lymphoprep in a 50 ml Falcon tube and centrifuged for 25 minutes at 1800 rpm at 21° C. The interphase was carefully transferred to a new Falcon tube and filled up to 50 ml with ice cold PBS. After another centrifugation step (10 minutes, 1200 rpm, 4° C.), the cell pellet was washed 3 times with PBS, resuspended in RPMI medium containing 20% FCS and 10% DMSO and frozen in liquid nitrogen. Monocytes were generated from frozen aliquots using positive selection with the CD14 Beads-Kit (Miltenyi) on an autoMACS-Sorter (Miltenyi) according to the manufacturer's instructions.
Cells were seeded at 8×10^5/ml in 50 μl/well of a 384-well plate and combined cells with graded concentrations of test compounds. After 16 hours, the supernatants were transferred to fresh plates and frozen at −20° C. for IL-8 analysis, using a commercial ELISA kit.

IL-8 [2] = experiment: U937 cell stimulation assay (LPS-induced IL-8); format: cell-based, human; conditions: LPS 100 ng/ml, 16 hours (FIG. 16A)
Procedure: The human monocytic cell line U937 (ATCC CRL 1593) was routinely grown in RPMI_1640 supplemented by 10% FCS and 2 mM glutamine, and 100 U/ml penicillin/100 μg/ml streptomycin. Cells were seeded at 4×10^5/ml in 50 μl/well of a 384-well plate and combined cells with graded concentrations of test compounds and LPS at 100 ng/ml. After 16 hours, the supernatants were transferred to fresh plates and frozen at −20° C. for IL-8 analysis, using a commercial ELISA kit.

## Cc1ccc2c(NC[C@](O)(CC(C)(C)c3cc(F)cc4c3OCC4)C(F)(F)F)cccc2n1 [Mapracorat]
Glucocorticoid receptor
  concentration showing nuclear translocation of the glucocorticoid receptor: 1 to 10 nM

## C[C@@H]1C[C@H]2[C@@H]3CCC4=CC(=O)C=C[C@]4(C)[C@@]3(F)[C@@H](O)C[C@]2(C)[C@@]1(O)C(=O)CO [dexamethasone]
IL-8 [1]
  spontaneous IL-8 secretion in human monocytes: inhibited IL-8 in a similar fashion as the SEGRM
IL-8 [2]
  LPS-induced IL-8 secretion in U937 cells: inhibited IL-8 in a similar fashion as the SEGRM
